Patent publication US12486302B2, “Somatostatin receptor antagonist compounds and methods of using the same” (CDRD VENTURES INC., priority 2016, dated 2025)
Some entries share one result that the patent states for a list of compounds. *1 amine or outer side, *2 acyl side, *3 side chain or, on linkers, in order; H or OH if unused. Where a SMILES comes first, the peptide text is derived from it. Bridges are numbered along the chain shown (N, C = ends). Triazole bridges read from a SMILES are 1,4-linked. Side-chain parts run from the residue outwards. [ ]: non-standard residue; d: D form. The star is where a group is joined. ξ: configuration not given here. dPhe(4-CONH2) = NC(=O)c1ccc(C[C@@H](N)C(=O)O)cc1; NMePhe(4-Cl) = CN[C@@H](Cc1ccc(Cl)cc1)C(=O)O; dPhe(4-CN) = N#Cc1ccc(C[C@@H](N)C(=O)O)cc1; dPhe(4-NH2) = Nc1ccc(C[C@@H](N)C(=O)O)cc1; Phe(4-Cl) = N[C@@H](Cc1ccc(Cl)cc1)C(=O)O; dDap(N3) = [N-]=[N+]=NC[C@@H](N)C(=O)O; Dap(N3) = [N-]=[N+]=NC[C@H](N)C(=O)O; NMeY = CN[C@@H](Cc1ccc(O)cc1)C(=O)O; NMeT = CN[C@H](C(=O)O)[C@@H](C)O; Lys(Me) = CNCCCC[C@H](N)C(=O)O; Thr(3ξ) = CC(O)[C@H](N)C(=O)O; NMeK = CN[C@@H](CCCCN)C(=O)O; dPra = C#CC[C@@H](N)C(=O)O; NMeC = CN[C@@H](CS)C(=O)O; dNMeC = CN[C@H](CS)C(=O)O; MeOSuc = COC(=O)CCC(=O)*; Pra = C#CC[C@H](N)C(=O)O; dDap = NC[C@@H](N)C(=O)O; Dap = NC[C@H](N)C(=O)O; CO = O=C([*:1])[*:2]; NHPh = c1ccc(N*)cc1

Protein sequences, listed by entry. Tags and fused reporters are not part of them. Lines headed by an entry give the natural chain unless they say otherwise; changes in a name come on top.
UniProt P30874: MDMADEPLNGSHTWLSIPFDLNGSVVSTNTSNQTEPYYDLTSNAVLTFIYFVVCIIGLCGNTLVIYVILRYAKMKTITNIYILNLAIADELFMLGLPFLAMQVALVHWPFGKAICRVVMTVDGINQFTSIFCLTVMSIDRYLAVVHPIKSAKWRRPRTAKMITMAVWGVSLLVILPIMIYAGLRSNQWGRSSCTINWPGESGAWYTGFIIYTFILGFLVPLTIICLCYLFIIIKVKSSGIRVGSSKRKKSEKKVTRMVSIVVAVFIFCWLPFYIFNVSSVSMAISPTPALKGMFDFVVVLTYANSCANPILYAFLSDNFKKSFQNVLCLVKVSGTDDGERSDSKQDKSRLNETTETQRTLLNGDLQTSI

Target: somatostatin type 2 (SSTR2) receptors (Homo sapiens, UniProt P30874)
Assay: PathHunter β-Arrestin assay, antagonist mode, SSTR2
Type: cell-based
How it was run: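 Cells co-expressing PK-tagged human receptor and EA-β-Arrestin were pre-incubated with compound, then challenged with agonist at EC80. β-Gal complementation read by chemiluminescence; % inhibition normalized to EC80 and vehicle controls at 10 concentrations (log 3 steps from 1 μM down to 5e-5 μM), fitted for IC50.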

| SMILES | antagonistic activity with respect to SSTR2 |
| --- | --- |
| CNCCCC[C@@H]1NC(=O)[C@@H](Cc2ccc(C(N)=O)cc2)NC(=O)[C@H](Cc2ccc(O)cc2)NC(=O)[C@H](NC(=O)[C@H](Cc2ccc(Cl)cc2)NC(=O)CCC(=O)OC)CSSC[C@@H](C(=O)N[C@H](Cc2ccc(O)cc2)C(N)=O)NC(=O)[C@H]([C@@H](C)O)NC1=O [Compound 58, CH3O2C(CH2)2(CO)-Cpa-cyclo[D-Cys-Tyr-D-Phe(4-carbamoyl)-Lys(N^ε-Me)-Thr-Cys]-D-Tyr-NH2] (MeOSuc-[Phe(4-Cl)][dC]Y[dPhe(4-CONH2)][Lys(Me)]TC[dY]-NH2; disulfide 2-7) | exhibited antagonistic activity |
| C[C@@H](O)[C@@H]1NC(=O)[C@H](CCCCN)NC(=O)[C@@H](Cc2ccc(C#N)cc2)NC(=O)[C@H](Cc2ccc(O)cc2)NC(=O)[C@H](NC(=O)[C@@H](N)Cc2ccc(Cl)cc2)CSSC[C@@H](C(=O)N[C@H](Cc2ccc(O)cc2)C(N)=O)NC1=O [Compound 59, H-Cpa-[DCys- Tyr-DPhe(4-CN)- Lys-Thr-Cys]- DTyr-NH2] (H-[Phe(4-Cl)][dC]Y[dPhe(4-CN)]KTC[dY]-NH2; disulfide 2-7) | exhibited antagonistic activity |
| CC(O)[C@@H]1NC(=O)[C@H](CCCCN)NC(=O)[C@@H](Cc2ccc(C(N)=O)cc2)NC(=O)[C@H](Cc2ccc(O)cc2)NC(=O)[C@H](NC(=O)[C@@H](N)Cc2ccc(Cl)cc2)CNC(=O)SC[C@@H](C(=O)N[C@H](Cc2ccc(O)cc2)C(N)=O)NC1=O (stereo partly drawn) [Compound 60, H-Cpa-cyclo [DDap-Tyr- DPhe(4-CONH2)- Lys-Thr-Cys]- DTyr-NH2] | exhibited antagonistic activity |
| CC(O)[C@@H]1NC(=O)[C@H](CCCCN)NC(=O)[C@@H](Cc2ccc(C(N)=O)cc2)NC(=O)[C@H](Cc2ccc(O)cc2)NC(=O)[C@H](NC(=O)[C@@H](N)Cc2ccc(Cl)cc2)CSC(=O)NC[C@@H](C(=O)N[C@H](Cc2ccc(O)cc2)C(N)=O)NC1=O (stereo partly drawn) [Compound 62, H-Cpa-cyclo[DCys- Tyr-DPhe(4- CONH2)- Lys-Thr-Dap]- DTyr-NH2] (H-[Phe(4-Cl)][dC]Y[dPhe(4-CONH2)]K[Thr(3ξ)][Dap][dY]-NH2; linker 2-7 via CO) | exhibited antagonistic activity |
| CNCCCC[C@@H]1NC(=O)[C@@H](Cc2ccc(C(N)=O)cc2)NC(=O)[C@H](Cc2ccc(O)cc2)NC(=O)[C@H](NC(=O)[C@@H](N)Cc2ccc(Cl)cc2)CSC(=O)NC[C@@H](C(=O)N[C@H](Cc2ccc(O)cc2)C(N)=O)NC(=O)[C@H](C(C)O)NC1=O (stereo partly drawn) [Compound 63, H-Cpa-cyclo [DCys-Tyr-DPhe (4-CONH2)- Lys(Me)-Thr-Dap]- DTyr-NH2] (H-[Phe(4-Cl)][dC]Y[dPhe(4-CONH2)][Lys(Me)][Thr(3ξ)][Dap][dY]-NH2; linker 2-7 via CO) | exhibited antagonistic activity |
| C[C@@H](O)[C@@H]1NC(=O)[C@H](CCCCN)NC(=O)[C@@H](Cc2ccc(C(N)=O)cc2)NC(=O)[C@H](Cc2ccc(O)cc2)NC(=O)[C@H](NC(=O)[C@@H](N)Cc2ccc(Cl)cc2)Cn2cc(nn2)C[C@@H](C(=O)N[C@H](Cc2ccc(O)cc2)C(N)=O)NC1=O [Compound 64] (H-[Phe(4-Cl)][dDap(N3)]Y[dPhe(4-CONH2)]KT[Pra][dY]-NH2; triazole 2-7) | exhibited antagonistic activity |
| C[C@@H](O)[C@@H]1NC(=O)[C@H](CCCCN)NC(=O)[C@@H](Cc2ccc(C(N)=O)cc2)NC(=O)[C@H](Cc2ccc(O)cc2)NC(=O)[C@@H](NC(=O)[C@@H](N)Cc2ccc(Cl)cc2)Cc2cn(nn2)C[C@@H](C(=O)N[C@H](Cc2ccc(O)cc2)C(N)=O)NC1=O [Compound 65] (H-[Phe(4-Cl)][Pra]Y[dPhe(4-CONH2)]KT[Dap(N3)][dY]-NH2; triazole 2-7) | exhibited antagonistic activity |
| C[C@@H](O)[C@@H]1NC(=O)[C@H](CCCCN)NC(=O)[C@@H](Cc2ccc(C(N)=O)cc2)NC(=O)[C@H](Cc2ccc(O)cc2)NC(=O)[C@H](NC(=O)[C@@H](N)Cc2ccc(Cl)cc2)Cc2cn(nn2)C[C@@H](C(=O)N[C@H](Cc2ccc(O)cc2)C(N)=O)NC1=O [Compound 66] (H-[Phe(4-Cl)][dPra]Y[dPhe(4-CONH2)]KT[Dap(N3)][dY]-NH2; triazole 2-7) | exhibited antagonistic activity |
| C[C@@H](O)[C@@H]1NC(=O)[C@H](CCCCN)NC(=O)[C@@H](Cc2ccc(C(N)=O)cc2)NC(=O)[C@H](Cc2ccc(O)cc2)NC(=O)[C@H](NC(=O)[C@@H](N)Cc2ccc(Cl)cc2)CC=CC[C@@H](C(=O)N[C@H](Cc2ccc(O)cc2)C(N)=O)NC1=O [Compound 67] | exhibited antagonistic activity |
| C[C@@H](O)[C@@H]1NC(=O)[C@H](CCCCN)NC(=O)[C@@H](Cc2ccc(C(N)=O)cc2)NC(=O)[C@H](Cc2ccc(O)cc2)NC(=O)[C@H](NC(=O)[C@@H](N)Cc2ccc(Cl)cc2)CNC(=O)C[C@@H](C(=O)N[C@H](Cc2ccc(O)cc2)C(N)=O)NC1=O [Compound 69, H-Cpa-cyclo [DDap-Tyr- DPhe(4-CONH2)- Lys-Thr-Asp]- DTyr-NH2] (H-[Phe(4-Cl)][dDap]Y[dPhe(4-CONH2)]KTD[dY]-NH2; lactam 2-7) | exhibited antagonistic activity |
| C[C@@H](O)[C@@H]1NC(=O)[C@H](CCCCN)NC(=O)[C@@H](Cc2ccc(NC(=O)Nc3ccccc3)cc2)NC(=O)[C@H](Cc2ccc(O)cc2)NC(=O)[C@H](NC(=O)[C@@H](N)Cc2ccc(Cl)cc2)CNC(=O)C[C@@H](C(=O)N[C@H](Cc2ccc(O)cc2)C(N)=O)NC1=O [Compound 70] (H-[Phe(4-Cl)][dDap]Y[dPhe(4-NH2)]([CO-NHPh])KTD[dY]-NH2; lactam 2-7) | exhibited antagonistic activity |
| CNCCCC[C@@H]1NC(=O)[C@@H](Cc2ccc(C(N)=O)cc2)NC(=O)[C@H](Cc2ccc(O)cc2)NC(=O)[C@H](NC(=O)[C@@H](N)Cc2ccc(Cl)cc2)CNC(=O)C[C@@H](C(=O)N[C@H](Cc2ccc(O)cc2)C(N)=O)NC(=O)[C@H]([C@@H](C)O)NC1=O [Compound 71, H-Cpa-cyclo [DDap-Tyr- DPhe(4-CONH2)- Lys(Me)-Thr- Asp]-DTyr-NH2] (H-[Phe(4-Cl)][dDap]Y[dPhe(4-CONH2)][Lys(Me)]TD[dY]-NH2; lactam 2-7) | exhibited antagonistic activity |
| C[C@@H](O)[C@@H]1NC(=O)[C@H](CCCCN)N(C)C(=O)[C@@H](Cc2ccc(C(N)=O)cc2)NC(=O)[C@H](Cc2ccc(O)cc2)NC(=O)[C@H](NC(=O)[C@@H](N)Cc2ccc(Cl)cc2)CSSC[C@@H](C(=O)N[C@H](Cc2ccc(O)cc2)C(N)=O)NC1=O [Compound 72, H-Cpa-cyclo[DCys- Tyr-D-(4- carbamoyl)Phe- (N-alpha-Me)Lys- Thr-Cys]- DTyr-NH2] (H-[Phe(4-Cl)][dC]Y[dPhe(4-CONH2)][NMeK]TC[dY]-NH2; disulfide 2-7) | exhibited antagonistic activity |
| C[C@@H](O)[C@H]1C(=O)N[C@H](C(=O)N[C@H](Cc2ccc(O)cc2)C(N)=O)CSSC[C@@H](NC(=O)[C@@H](N)Cc2ccc(Cl)cc2)C(=O)N[C@@H](Cc2ccc(O)cc2)C(=O)N[C@H](Cc2ccc(C(N)=O)cc2)C(=O)N[C@@H](CCCCN)C(=O)N1C [Compound 73, H-Cpa-[DCys-Tyr- DPhe(4-carbamoyl)- Lys-NMeThr- Cys]-DTyr-NH2] (H-[Phe(4-Cl)][dC]Y[dPhe(4-CONH2)]K[NMeT]C[dY]-NH2; disulfide 2-7) | exhibited antagonistic activity |
| C[C@@H](O)[C@@H]1NC(=O)[C@H](CCCCN)NC(=O)[C@@H](Cc2ccc(C(N)=O)cc2)NC(=O)[C@H](Cc2ccc(O)cc2)N(C)C(=O)[C@H](NC(=O)[C@@H](N)Cc2ccc(Cl)cc2)CSSC[C@@H](C(=O)N[C@H](Cc2ccc(O)cc2)C(N)=O)NC1=O [Compound 74, H-Cpa-[DCys- NMeTyr-DPhe (4-carbamoyl)- Lys-Thr-Cys]- DTyr-NH2] (H-[Phe(4-Cl)][dC][NMeY][dPhe(4-CONH2)]KTC[dY]-NH2; disulfide 2-7) | exhibited antagonistic activity |
| C[C@@H](O)[C@H]1C(=O)N[C@H](C(=O)N[C@H](Cc2ccc(O)cc2)C(N)=O)CSSC[C@@H](NC(=O)[C@@H](N)Cc2ccc(Cl)cc2)C(=O)N(C)[C@@H](Cc2ccc(O)cc2)C(=O)N[C@H](Cc2ccc(C(N)=O)cc2)C(=O)N[C@@H](CCCCN)C(=O)N1C [Compound 75, H-Cpa-[DCys-NMeTyr-DPhe(4-carbamoyl)-Lys-NMeThr-Cys]-DTyr-NH2] (H-[Phe(4-Cl)][dC][NMeY][dPhe(4-CONH2)]K[NMeT]C[dY]-NH2; disulfide 2-7) | exhibited antagonistic activity |
| C[C@@H](O)[C@@H]1NC(=O)[C@H](CCCCN)NC(=O)[C@@H](Cc2ccc(C(N)=O)cc2)NC(=O)[C@H](Cc2ccc(O)cc2)NC(=O)[C@H](NC(=O)[C@@H](N)Cc2ccc(Cl)cc2)CSSC[C@@H](C(=O)N[C@H](Cc2ccc(O)cc2)C(N)=O)N(C)C1=O [Compound 76, H-Cpa-[DCys- Tyr-DPhe (4-carbamoyl)- Lys-Thr-NMeCys]- DTyr-NH2] (H-[Phe(4-Cl)][dC]Y[dPhe(4-CONH2)]KT[NMeC][dY]-NH2; disulfide 2-7) | exhibited antagonistic activity |
| CN[C@@H](Cc1ccc(Cl)cc1)C(=O)N[C@@H]1CSSC[C@@H](C(=O)N[C@H](Cc2ccc(O)cc2)C(N)=O)NC(=O)[C@H]([C@@H](C)O)NC(=O)[C@H](CCCCN)NC(=O)[C@@H](Cc2ccc(C(N)=O)cc2)NC(=O)[C@H](Cc2ccc(O)cc2)NC1=O [Compound 77, H—(N-Me)Cpa-cyclo[D-Cys-Tyr-D-Phe(4-carbamoyl)-Lys-Thr-Cys]-D-Tyr-NH2] (H-[NMePhe(4-Cl)][dC]Y[dPhe(4-CONH2)]KTC[dY]-NH2; disulfide 2-7) | exhibited antagonistic activity |
| C[C@@H](O)[C@@H]1NC(=O)[C@H](CCCCN)NC(=O)[C@@H](Cc2ccc(C(N)=O)cc2)NC(=O)[C@H](Cc2ccc(O)cc2)NC(=O)[C@H](N(C)C(=O)[C@@H](N)Cc2ccc(Cl)cc2)CSSC[C@@H](C(=O)N[C@H](Cc2ccc(O)cc2)C(N)=O)NC1=O [Compound 78, H-Cpa- [NMeDCys- Tyr-DPhe (4-carbamoyl)- Lys-Thr-Cys]- DTyr-NH2] (H-[Phe(4-Cl)][dNMeC]Y[dPhe(4-CONH2)]KTC[dY]-NH2; disulfide 2-7) | exhibited antagonistic activity |
